Experimental data: PMC11094040

Molecular target: T1, BmAgo3 (silkworm (endogenous in BmN4)) (UniProt A9ZSZ2)
T1 sequence: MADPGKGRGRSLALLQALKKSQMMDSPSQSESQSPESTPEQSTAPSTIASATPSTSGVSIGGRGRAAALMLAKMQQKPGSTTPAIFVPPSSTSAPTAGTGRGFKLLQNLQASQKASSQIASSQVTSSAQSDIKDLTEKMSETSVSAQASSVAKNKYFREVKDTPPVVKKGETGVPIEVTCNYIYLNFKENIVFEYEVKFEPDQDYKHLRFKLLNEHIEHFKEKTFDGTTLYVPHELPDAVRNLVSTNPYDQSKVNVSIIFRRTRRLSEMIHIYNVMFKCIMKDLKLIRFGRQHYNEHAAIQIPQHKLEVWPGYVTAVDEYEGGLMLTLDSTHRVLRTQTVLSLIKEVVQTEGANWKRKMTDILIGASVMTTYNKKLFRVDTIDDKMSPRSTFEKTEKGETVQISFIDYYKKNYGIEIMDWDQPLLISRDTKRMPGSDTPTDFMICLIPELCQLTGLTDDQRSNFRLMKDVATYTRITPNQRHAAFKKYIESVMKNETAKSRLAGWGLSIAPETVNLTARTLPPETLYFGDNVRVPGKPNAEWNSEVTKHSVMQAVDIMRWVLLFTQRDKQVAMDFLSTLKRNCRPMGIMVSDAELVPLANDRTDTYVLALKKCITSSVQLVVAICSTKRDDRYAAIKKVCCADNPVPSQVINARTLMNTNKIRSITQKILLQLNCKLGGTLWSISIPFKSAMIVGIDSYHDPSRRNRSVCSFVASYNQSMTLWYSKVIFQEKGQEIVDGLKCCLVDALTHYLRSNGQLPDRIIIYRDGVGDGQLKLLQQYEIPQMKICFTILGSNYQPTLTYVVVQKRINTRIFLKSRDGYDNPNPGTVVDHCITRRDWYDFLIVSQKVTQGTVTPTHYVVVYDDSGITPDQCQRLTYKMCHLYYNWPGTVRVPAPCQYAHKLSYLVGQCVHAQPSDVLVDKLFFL
Assay: affinity purification with mass spectrometry; anti-BmAgo3 antibody and Dynabeads Protein G on lysate of BmN4 cells treated with dsRNA targeting Rluc (control) or Siwi; buffer A (25 mM Tris-HCl pH 7.6, 150 mM NaCl, 1.5 mM MgCl2, 0.2% sodium deoxycholate, 0.1% lithium dodecyl sulfate, 0.4% NP-40), 4 °C; SDS-PAGE, CBB staining, p160 band identified by LC-MS/MS

binding: binds
Substance: Spindle-E (Spn-E), endogenous (silkworm (endogenous in BmN4))

Results are given in words; binding and its absence hold for the method and conditions named. In cells and extracts the contact can be indirect. A yes stands for co-enrichment or nearness to the bait. Other partners may have been found.
